The supplement of paper PMC10849652
This is one part of the list.

By UniProt entry, the sequences of proteins in these tests, tags left out. Where a name states a change or a piece, a line headed by the entry shows the natural chain unless it says otherwise.
UniProt Q9BQ90: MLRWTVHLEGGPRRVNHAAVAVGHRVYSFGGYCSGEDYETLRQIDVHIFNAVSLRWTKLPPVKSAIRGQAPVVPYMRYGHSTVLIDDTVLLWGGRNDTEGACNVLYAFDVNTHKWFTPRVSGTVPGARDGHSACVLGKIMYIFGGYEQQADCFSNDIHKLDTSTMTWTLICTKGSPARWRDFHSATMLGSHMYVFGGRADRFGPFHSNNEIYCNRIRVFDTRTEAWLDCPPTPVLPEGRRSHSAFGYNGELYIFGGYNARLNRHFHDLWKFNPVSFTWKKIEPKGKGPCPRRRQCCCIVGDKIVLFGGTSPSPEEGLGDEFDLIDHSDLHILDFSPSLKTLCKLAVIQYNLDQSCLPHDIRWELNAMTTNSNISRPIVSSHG
UniProt Q14681: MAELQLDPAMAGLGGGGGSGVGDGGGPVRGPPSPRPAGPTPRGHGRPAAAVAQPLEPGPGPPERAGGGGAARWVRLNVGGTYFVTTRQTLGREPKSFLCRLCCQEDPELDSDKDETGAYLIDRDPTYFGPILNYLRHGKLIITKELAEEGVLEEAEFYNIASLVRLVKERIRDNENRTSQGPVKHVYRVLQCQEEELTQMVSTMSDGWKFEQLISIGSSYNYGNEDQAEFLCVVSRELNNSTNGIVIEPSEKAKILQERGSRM
UniProt Q9H3F6: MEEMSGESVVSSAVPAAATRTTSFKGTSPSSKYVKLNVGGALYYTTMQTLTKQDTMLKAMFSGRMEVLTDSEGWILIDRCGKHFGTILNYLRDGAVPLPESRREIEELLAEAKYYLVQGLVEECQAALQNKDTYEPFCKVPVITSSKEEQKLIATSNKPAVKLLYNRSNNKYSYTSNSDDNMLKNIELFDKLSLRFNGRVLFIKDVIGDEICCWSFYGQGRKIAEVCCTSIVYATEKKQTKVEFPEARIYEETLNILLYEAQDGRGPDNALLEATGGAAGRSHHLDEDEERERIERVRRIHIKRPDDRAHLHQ
UniProt Q9H910: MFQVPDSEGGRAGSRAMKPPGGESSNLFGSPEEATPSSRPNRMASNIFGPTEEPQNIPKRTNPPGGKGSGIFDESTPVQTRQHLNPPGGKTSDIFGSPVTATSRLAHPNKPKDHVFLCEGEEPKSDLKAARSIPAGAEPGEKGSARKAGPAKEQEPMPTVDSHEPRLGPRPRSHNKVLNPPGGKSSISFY
UniProt Q9BXK1: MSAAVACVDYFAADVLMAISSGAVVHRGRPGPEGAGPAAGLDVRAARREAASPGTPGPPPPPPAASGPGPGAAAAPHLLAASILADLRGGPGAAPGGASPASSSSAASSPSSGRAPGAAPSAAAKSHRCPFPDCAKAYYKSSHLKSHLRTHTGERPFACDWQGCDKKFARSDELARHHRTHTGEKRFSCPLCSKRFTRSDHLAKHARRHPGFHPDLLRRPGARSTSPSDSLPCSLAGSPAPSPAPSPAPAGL
UniProt Q8NC54: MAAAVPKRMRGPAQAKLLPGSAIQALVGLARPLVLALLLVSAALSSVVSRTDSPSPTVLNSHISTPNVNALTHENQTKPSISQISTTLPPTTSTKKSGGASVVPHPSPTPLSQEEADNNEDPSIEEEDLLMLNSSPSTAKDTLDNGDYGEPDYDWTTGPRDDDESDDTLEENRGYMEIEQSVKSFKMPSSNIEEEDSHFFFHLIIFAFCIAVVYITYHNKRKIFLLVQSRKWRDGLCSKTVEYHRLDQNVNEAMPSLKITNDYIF
UniProt O95279: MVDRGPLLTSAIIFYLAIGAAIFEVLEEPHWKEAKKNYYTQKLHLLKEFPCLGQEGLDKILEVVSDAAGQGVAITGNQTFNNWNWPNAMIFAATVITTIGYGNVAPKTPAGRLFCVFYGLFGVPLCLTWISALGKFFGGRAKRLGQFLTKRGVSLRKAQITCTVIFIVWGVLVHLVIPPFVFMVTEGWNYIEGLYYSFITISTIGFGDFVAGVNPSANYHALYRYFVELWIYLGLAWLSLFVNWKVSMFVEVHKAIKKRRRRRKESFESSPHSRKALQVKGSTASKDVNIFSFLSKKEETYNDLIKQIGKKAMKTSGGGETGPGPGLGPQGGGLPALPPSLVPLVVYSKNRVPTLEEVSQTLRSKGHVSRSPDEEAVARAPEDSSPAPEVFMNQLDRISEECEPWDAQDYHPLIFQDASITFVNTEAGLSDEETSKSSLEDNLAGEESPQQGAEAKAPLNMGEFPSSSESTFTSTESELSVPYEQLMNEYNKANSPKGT
UniProt Q96S16: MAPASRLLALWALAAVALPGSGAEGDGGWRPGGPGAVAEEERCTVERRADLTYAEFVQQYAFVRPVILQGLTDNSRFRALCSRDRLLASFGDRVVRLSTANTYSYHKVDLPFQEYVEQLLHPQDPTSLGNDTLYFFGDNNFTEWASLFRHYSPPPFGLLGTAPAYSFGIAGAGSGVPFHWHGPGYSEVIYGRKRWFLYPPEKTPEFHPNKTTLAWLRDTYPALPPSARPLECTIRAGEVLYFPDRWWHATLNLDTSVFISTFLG
UniProt Q96EK5: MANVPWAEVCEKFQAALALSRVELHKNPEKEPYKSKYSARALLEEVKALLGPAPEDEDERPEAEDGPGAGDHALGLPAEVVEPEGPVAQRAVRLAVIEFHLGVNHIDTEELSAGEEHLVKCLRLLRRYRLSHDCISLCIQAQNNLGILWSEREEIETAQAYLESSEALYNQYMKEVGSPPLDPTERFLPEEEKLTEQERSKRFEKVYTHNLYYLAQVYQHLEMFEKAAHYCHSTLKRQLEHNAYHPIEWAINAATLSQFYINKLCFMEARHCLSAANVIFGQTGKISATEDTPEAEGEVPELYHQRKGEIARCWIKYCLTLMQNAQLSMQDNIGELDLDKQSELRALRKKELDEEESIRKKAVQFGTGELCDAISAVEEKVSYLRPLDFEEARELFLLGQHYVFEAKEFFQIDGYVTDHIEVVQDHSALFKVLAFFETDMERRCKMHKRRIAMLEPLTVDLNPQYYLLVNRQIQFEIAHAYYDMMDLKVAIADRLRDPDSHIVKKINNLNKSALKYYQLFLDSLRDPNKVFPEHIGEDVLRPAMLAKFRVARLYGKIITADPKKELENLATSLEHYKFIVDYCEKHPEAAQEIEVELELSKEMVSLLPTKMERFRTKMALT
UniProt O60268: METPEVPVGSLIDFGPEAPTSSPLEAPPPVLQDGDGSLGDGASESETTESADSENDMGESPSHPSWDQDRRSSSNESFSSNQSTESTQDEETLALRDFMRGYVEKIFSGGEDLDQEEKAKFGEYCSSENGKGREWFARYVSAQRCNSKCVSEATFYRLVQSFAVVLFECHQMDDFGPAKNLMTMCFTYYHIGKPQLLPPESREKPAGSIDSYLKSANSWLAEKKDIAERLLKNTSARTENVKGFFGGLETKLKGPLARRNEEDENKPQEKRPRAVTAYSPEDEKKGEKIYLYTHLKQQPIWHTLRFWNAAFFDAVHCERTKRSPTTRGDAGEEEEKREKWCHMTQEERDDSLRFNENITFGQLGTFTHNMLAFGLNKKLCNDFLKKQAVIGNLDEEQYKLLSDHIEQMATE
UniProt Q8IXV7: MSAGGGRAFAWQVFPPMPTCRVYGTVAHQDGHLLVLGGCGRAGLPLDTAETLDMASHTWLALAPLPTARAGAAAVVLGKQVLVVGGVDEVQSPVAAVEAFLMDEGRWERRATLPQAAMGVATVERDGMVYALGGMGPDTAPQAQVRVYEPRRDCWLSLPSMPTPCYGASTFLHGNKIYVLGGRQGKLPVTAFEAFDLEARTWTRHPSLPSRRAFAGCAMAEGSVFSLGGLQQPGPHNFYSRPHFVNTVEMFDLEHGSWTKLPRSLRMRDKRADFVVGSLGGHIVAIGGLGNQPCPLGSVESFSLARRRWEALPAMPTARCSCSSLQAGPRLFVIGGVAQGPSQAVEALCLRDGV
UniProt O00180: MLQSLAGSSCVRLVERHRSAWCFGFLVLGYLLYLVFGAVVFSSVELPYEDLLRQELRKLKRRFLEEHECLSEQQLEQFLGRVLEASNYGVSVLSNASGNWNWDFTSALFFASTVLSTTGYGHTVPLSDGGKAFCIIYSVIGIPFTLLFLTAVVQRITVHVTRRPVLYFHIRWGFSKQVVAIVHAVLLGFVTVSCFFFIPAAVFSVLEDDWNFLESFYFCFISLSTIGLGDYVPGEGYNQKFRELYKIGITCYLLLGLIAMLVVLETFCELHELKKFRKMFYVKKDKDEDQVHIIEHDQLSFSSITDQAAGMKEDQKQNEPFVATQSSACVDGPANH
UniProt P17275: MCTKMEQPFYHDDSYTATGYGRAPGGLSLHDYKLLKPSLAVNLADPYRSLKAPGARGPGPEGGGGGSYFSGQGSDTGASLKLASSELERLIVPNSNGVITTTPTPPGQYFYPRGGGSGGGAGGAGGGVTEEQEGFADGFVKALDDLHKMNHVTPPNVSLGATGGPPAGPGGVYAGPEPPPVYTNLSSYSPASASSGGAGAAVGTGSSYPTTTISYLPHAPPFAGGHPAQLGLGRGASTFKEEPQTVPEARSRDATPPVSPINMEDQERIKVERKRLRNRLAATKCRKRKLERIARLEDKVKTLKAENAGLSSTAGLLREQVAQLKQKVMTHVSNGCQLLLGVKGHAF
UniProt P52732: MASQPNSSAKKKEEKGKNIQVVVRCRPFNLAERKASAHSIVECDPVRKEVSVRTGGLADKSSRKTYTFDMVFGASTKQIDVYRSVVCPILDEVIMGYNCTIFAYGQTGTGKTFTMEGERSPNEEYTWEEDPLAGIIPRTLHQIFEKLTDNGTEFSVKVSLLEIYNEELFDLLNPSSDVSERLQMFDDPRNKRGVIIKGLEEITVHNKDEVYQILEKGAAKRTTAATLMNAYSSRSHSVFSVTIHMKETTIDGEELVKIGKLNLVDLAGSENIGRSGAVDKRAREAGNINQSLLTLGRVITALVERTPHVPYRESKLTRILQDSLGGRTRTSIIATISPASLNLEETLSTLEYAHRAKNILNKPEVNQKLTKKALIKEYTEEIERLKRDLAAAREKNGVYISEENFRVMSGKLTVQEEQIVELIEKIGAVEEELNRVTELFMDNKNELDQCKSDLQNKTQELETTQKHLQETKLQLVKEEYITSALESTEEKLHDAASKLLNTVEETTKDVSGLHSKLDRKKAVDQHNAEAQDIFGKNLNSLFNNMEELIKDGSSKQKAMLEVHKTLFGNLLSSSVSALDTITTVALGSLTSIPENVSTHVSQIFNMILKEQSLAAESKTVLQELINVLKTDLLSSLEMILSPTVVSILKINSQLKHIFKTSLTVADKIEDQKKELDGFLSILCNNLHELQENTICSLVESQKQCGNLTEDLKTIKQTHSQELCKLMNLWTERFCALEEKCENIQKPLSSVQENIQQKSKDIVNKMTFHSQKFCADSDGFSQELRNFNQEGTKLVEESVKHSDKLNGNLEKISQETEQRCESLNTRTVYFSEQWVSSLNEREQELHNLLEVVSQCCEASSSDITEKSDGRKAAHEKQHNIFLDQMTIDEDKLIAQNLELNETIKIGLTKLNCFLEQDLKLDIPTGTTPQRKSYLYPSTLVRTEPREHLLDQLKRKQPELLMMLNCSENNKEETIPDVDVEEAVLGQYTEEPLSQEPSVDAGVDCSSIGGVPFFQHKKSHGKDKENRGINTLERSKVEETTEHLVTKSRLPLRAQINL
UniProt Q9BW62: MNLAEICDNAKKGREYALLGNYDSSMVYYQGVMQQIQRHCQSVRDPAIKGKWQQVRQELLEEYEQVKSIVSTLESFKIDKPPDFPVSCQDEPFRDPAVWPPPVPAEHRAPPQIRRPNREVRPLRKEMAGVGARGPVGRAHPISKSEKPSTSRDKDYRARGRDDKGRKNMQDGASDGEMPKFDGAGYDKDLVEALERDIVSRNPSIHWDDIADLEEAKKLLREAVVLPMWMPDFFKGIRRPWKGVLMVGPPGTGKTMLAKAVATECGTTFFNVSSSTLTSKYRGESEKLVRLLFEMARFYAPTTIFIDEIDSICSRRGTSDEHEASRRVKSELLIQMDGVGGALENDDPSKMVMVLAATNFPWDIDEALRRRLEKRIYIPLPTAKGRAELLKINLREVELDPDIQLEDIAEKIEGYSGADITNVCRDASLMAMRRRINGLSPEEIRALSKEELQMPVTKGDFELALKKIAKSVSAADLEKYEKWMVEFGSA
UniProt O76095: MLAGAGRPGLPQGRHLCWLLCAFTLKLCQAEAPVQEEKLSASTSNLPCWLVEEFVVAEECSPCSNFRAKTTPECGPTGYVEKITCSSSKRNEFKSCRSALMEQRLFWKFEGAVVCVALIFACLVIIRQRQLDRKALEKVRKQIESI

Key:
Assay in all cases: log2 fold change, soluble protein after heating vs DMSO (PISA); higher = thermal stabilisation; K562 cells, 10 uM, 30 min; active = over 0.2 and 3.5 SD of the protein, either way, in both replicates (recomputed)
[1] = compound: COC1=CC=C(C=C1)CN2C=CC3=C2C=C(C=C3)C(=O)NO
Summary of the method: (§1)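 K562 cells at 2×10^6 cells/mL were exposed to 10 μM compound for 30 min, then aliquots were heated for 3 min across 48°C-58°C, pooled, and extracted in PBS containing 0.5% NP-40 at 4°C. The supernatant after 21,000xg for 90 min was taken as soluble protein and measured by TMTpro 16plex LC-MS/MS with channel sums equalised. Thermal stability is reported relative to control samples, with values from duplicates. Fold changes are given on a log2 scale.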

filanesib = compound: CON(C)C(=O)N1N=C(c2cc(F)ccc2F)S[C@@]1(CCCN)c1ccccc1 [filanesib]
Summary of the method: as §1

zotarolimus = compound: CO[C@H]1C[C@@H]2CC[C@@H](C)[C@@](O)(O2)C(=O)C(=O)N2CCCC[C@H]2C(=O)O[C@H]([C@H](C)C[C@@H]2CC[C@H](n3cnnn3)[C@H](OC)C2)CC(=O)[C@H](C)/C=C(\C)[C@@H](O)[C@@H](OC)C(=O)[C@H](C)C[C@H](C)/C=C/C=C/C=C/1C [zotarolimus]
Summary of the method: as §1

idasanutlin = compound: COc1cc(C(=O)O)ccc1NC(=O)[C@@H]1N[C@@H](CC(C)(C)C)[C@](C#N)(c2ccc(Cl)cc2F)[C@H]1c1cccc(Cl)c1F [idasanutlin]
Summary of the method: as §1

[2] = compound: COc1cc2nc(-c3cc(F)ccc3O)nc(N[C@@H]3CNC[C@H]3C(C)(C)O)c2cc1OC
Summary of the method: as §1

gefitinib = compound: COc1cc2ncnc(Nc3ccc(F)c(Cl)c3)c2cc1OCCCN1CCOCC1 [gefitinib]
Summary of the method: as §1

lapatinib = compound: CS(=O)(=O)CCNCc1ccc(-c2ccc3ncnc(Nc4ccc(OCc5cccc(F)c5)c(Cl)c4)c3c2)o1 [lapatinib]
Summary of the method: as §1

pictilisib = compound: CS(=O)(=O)N1CCN(Cc2cc3nc(-c4cccc5[nH]ncc45)nc(N4CCOCC4)c3s2)CC1 [pictilisib]
Summary of the method: as §1

[3] = compound: CS(=O)(=O)c1ccc(-c2cnc(N)c(C(=O)Nc3ccccc3)n2)cc1
Summary of the method: as §1

crizotinib = compound: C[C@@H](Oc1cc(-c2cnn(C3CCNCC3)c2)cnc1N)c1c(Cl)ccc(F)c1Cl [crizotinib]
Summary of the method: as §1

[4] = compound: C[C@@H]1COCCN1C2=NC(=NC(=C2)C3(CC3)S(=O)(=O)C)C4=C5C=CNC5=CC=C4
Summary of the method: as §1

[5] = compound: C[C@H](C1=CC=C(C=C1)C(=O)NC2=C3C=CNC3=NC=C2)N
Summary of the method: as §1

duvelisib = compound: C[C@H](Nc1ncnc2nc[nH]c12)c1cc2cccc(Cl)c2c(=O)n1-c1ccccc1 [duvelisib]
Summary of the method: as §1

gandotinib = compound: Cc1cc(Nc2cc(CN3CCOCC3)c3nc(C)c(Cc4ccc(Cl)cc4F)n3n2)n[nH]1 [gandotinib]
Summary of the method: as §1

tozasertib = compound: Cc1cc(Nc2cc(N3CCN(C)CC3)nc(Sc3ccc(NC(=O)C4CC4)cc3)n2)n[nH]1 [tozasertib]
Summary of the method: as §1

[6] = compound: Cc1cc(SCc2sc(-c3ccc(C(F)(F)F)cc3)nc2C)ccc1OCC(=O)O
Summary of the method: as §1

doramapimod = compound: Cc1ccc(-n2nc(C(C)(C)C)cc2NC(=O)Nc2ccc(OCCN3CCOCC3)c3ccccc23)cc1 [doramapimod]
Summary of the method: as §1

ispinesib = compound: Cc1ccc(C(=O)N(CCCN)[C@@H](c2nc3cc(Cl)ccc3c(=O)n2Cc2ccccc2)C(C)C)cc1 [ispinesib]
Summary of the method: as §1

alisertib = compound: COc1cc(Nc2ncc3c(n2)-c2ccc(Cl)cc2C(c2c(F)cccc2OC)=NC3)ccc1C(=O)O [alisertib]
Summary of the method: as §1

[7] = compound: COc1cccc2cc(-c3nc([C@H]4CC[C@H](C(=O)O)CC4)n4ncnc(N)c34)[nH]c12
Summary of the method: as §1

Target | log2 fold change [1] | log2 fold change (filanesib) | log2 fold change (zotarolimus) | log2 fold change (idasanutlin) | log2 fold change [2] | log2 fold change (gefitinib) | log2 fold change (lapatinib) | log2 fold change (pictilisib) | log2 fold change [3] | log2 fold change (crizotinib) | log2 fold change [4] | log2 fold change [5] | log2 fold change (duvelisib) | log2 fold change (gandotinib) | log2 fold change (tozasertib) | log2 fold change [6] | log2 fold change (doramapimod) | log2 fold change (ispinesib) | log2 fold change (alisertib) | log2 fold change [7]
KLHDC3 (UniProt Q9BQ90) | inactive: 0.215 | inactive: 0 | inactive: -0.021 | inactive: 0.015 | inactive: 0.117 | inactive: 0.062 | inactive: 0.003 | inactive: -0.009 | inactive: 0.057 | inactive: 0.052 | inactive: 0.032 | inactive: 0.088 | inactive: 0.02 | inactive: -0.208 | inactive: 0.028 | inactive: 0.051 | inactive: -0.047 | inactive: 0 |  | 
KCTD2 (UniProt Q14681) | inactive: 0.068 | inactive: 0.154 | inactive: -0.148 | inactive: 0.116 | inactive: 0.402 | inactive: 0.025 | inactive: -0.413 | inactive: 0.426 | inactive: 0.178 | inactive: 0.02 | inactive: -0.047 | inactive: 0.511 |  | inactive: 0.355 |  | inactive: -0.281 | inactive: 0.089 | inactive: 0.026 | inactive: -0.012 | inactive: 0.154
KCTD10 (UniProt Q9H3F6) | inactive: 0.086 | inactive: 0.177 | inactive: -0.095 | inactive: -0.049 | inactive: 0.079 | inactive: -0.03 | inactive: 0.001 | inactive: -0.039 | inactive: -0.035 | inactive: 0.097 | inactive: -0.027 | inactive: -0.13 |  | inactive: 0.042 |  | inactive: -0.01 | inactive: -0.042 | inactive: 0.108 | inactive: -0.06 | inactive: -0.105
JPT2 isoform 2 (UniProt Q9H910) | inactive: -0.05 | inactive: -0.118 |  | inactive: 0.288 | inactive: 0.046 | inactive: 0.091 | inactive: -0.072 |  | inactive: -0.052 | inactive: -0.083 |  |  |  |  | inactive: -0.149 |  | inactive: 0.05 |  | inactive: 0.111 | inactive: -0.013
KLF16 (UniProt Q9BXK1) | inactive: 0.117 | inactive: 0.154 |  | inactive: 0.091 | inactive: -0.07 | inactive: 0.021 | inactive: 0.042 | inactive: -0.027 | inactive: -0.063 | inactive: -0.02 |  |  | inactive: -0.097 | inactive: 0.071 | inactive: 0.047 | inactive: 0.041 | inactive: 0.138 |  | inactive: -0.077 | inactive: 0.04
KCT2 (UniProt Q8NC54) | inactive: -0.015 | inactive: -0.036 | inactive: -0.044 | inactive: -0.029 | inactive: 0.021 | inactive: 0.032 | inactive: -0.002 | inactive: 0.023 | inactive: 0 | inactive: -0.186 | inactive: 0.074 | inactive: -0.04 |  | inactive: 0.038 |  | inactive: 0.054 | inactive: 0.091 | inactive: -0.118 | inactive: -0.074 | inactive: 0.039
KCNK5 (UniProt O95279) | inactive: 0.059 | inactive: -0.117 | inactive: -0.044 |  | inactive: -0.541 |  | inactive: -0.227 | inactive: -0.007 | inactive: 0.087 | inactive: -0.164 | inactive: 0.339 | inactive: -0.013 |  | inactive: -0.03 |  | inactive: 0.242 | inactive: -0.165 |  | inactive: -0.408 | inactive: 0.193
JAK3 (UniProt P52333) | inactive: -0.216 | inactive: -0.019 | inactive: 0.018 |  | inactive: -0.083 | inactive: -0.047 | inactive: 0.01 | inactive: -0.056 | inactive: 0.001 | inactive: 0.048 | inactive: 0.142 | inactive: -0.062 |  | inactive: -0.132 |  | inactive: 0.135 | inactive: -0.071 | inactive: 0.087 | inactive: 0.052 | inactive: -0.02
JMJD8 (UniProt Q96S16) | inactive: 0.053 | inactive: 0.001 |  | inactive: -0.047 | inactive: -0.123 | inactive: 0.081 | inactive: 0.045 |  | inactive: -0.173 | inactive: 0.226 |  |  | inactive: 0.066 |  |  | inactive: 0.228 | inactive: 0.041 | inactive: 0.109 | inactive: 0.271 | inactive: -0.019
KIFBP (UniProt Q96EK5) | inactive: 0.058 | inactive: -0.095 | inactive: 0.074 | inactive: -0.09 | inactive: -0.028 | inactive: 0.01 | inactive: -0.049 | inactive: -0.071 | inactive: -0.036 | inactive: -0.025 | inactive: 0.079 | inactive: 0.08 |  | inactive: -0.051 |  | inactive: 0.085 | inactive: -0.053 | inactive: -0.139 | inactive: 0.106 | inactive: 0.01
KIAA0513 (UniProt O60268) | inactive: -0.021 | inactive: 0.028 | inactive: 0.032 | inactive: -0.017 | inactive: -0.035 | inactive: -0.331 | inactive: 0.011 | inactive: 0.104 | inactive: 0.133 | inactive: -0.04 |  | inactive: 0.001 |  | inactive: 0.167 | inactive: 0.036 |  | inactive: -0.051 |  | inactive: 0.157 | inactive: 0.168
KLHDC8B (UniProt Q8IXV7) | inactive: -0.097 | inactive: -0.07 | inactive: 0.032 | inactive: -0.096 |  |  |  | inactive: 0.236 | inactive: -0.056 | inactive: -0.225 |  | inactive: 0.152 | inactive: 0.121 | inactive: -0.08 | inactive: -0.192 | inactive: 0.014 | inactive: 0.004 | inactive: 0.088 | inactive: 0.055 | inactive: -0.101
KNL1 (UniProt Q8NG31) | inactive: 0.043 | inactive: -0.032 | inactive: 0.027 |  |  |  |  | inactive: 0.177 | inactive: 0.159 | inactive: -0.192 | inactive: -0.258 | inactive: -0.134 | inactive: 0.123 | inactive: 0.141 | inactive: -0.059 | inactive: -0.042 | inactive: 0.238 | inactive: -0.374 | inactive: -0.035 | inactive: 0.173
KBTBD4 isoform 2 (UniProt Q9NVX7) | inactive: 0.021 | inactive: -0.099 | inactive: -0.004 | inactive: -0.043 |  | inactive: 0.022 |  |  | inactive: 0.114 | inactive: 0.12 | inactive: 0.03 | inactive: -0.002 | inactive: 0.132 |  | inactive: 0.007 | inactive: -0.014 | inactive: 0.038 | inactive: -0.088 | inactive: -0.014 | inactive: 0.06
KCNK1 (UniProt O00180) | inactive: -0.02 | inactive: -0.083 | inactive: 0 |  | inactive: 0.092 | inactive: -0.097 | inactive: -0.087 | inactive: 0.077 | inactive: 0.052 | inactive: 0.267 | inactive: 0.059 | inactive: 0.136 | inactive: -0.168 | inactive: 0.071 |  | inactive: -0.102 | inactive: -0.087 | inactive: 0 |  | 
JUNB (UniProt P17275) | inactive: -0.1 | inactive: 0.177 | inactive: -0.265 | inactive: 0.075 |  | inactive: 0.147 |  | inactive: -0.034 | inactive: 0.024 | inactive: 0.201 | inactive: -0.106 | inactive: 0.232 |  | inactive: 0.012 | inactive: -0.121 |  | inactive: 0.206 | inactive: -0.351 | inactive: -0.152 | inactive: -0.021
KIF11 (UniProt P52732) | inactive: -0.004 | active: 1.1 | inactive: 0.074 | inactive: 0.026 | inactive: 0.043 | inactive: -0.002 | inactive: -0.018 | inactive: 0.046 | inactive: 0.034 | inactive: -0.091 | inactive: -0.029 | inactive: 0.207 |  | inactive: -0.018 |  | inactive: 0.19 | inactive: 0.13 | active: 0.761 | inactive: 0.011 | inactive: -0.063
KATNAL1 (UniProt Q9BW62) | inactive: -0.035 | inactive: 0.059 | inactive: -0.009 | inactive: 0.046 | inactive: -0.14 |  | inactive: -0.072 |  | inactive: -0.353 | inactive: -0.147 | inactive: 0.048 | inactive: 0.112 | inactive: 0.09 |  | inactive: 0.12 | inactive: -0.182 | inactive: -0.095 |  |  | 
JTB (UniProt O76095) | inactive: 0.147 | inactive: 0.08 | inactive: -0.129 | inactive: -0.245 | inactive: 0.044 | inactive: 0.007 | inactive: -0.011 |  | inactive: -0.012 | inactive: -0.016 | inactive: -0.012 | inactive: 0.14 | inactive: -0.013 |  | inactive: 0.021 | inactive: -0.065 | inactive: -0.047 |  | inactive: 0.09 | inactive: 0.015

Random excerpt: two entries already listed.
Target | log2 fold change [1] | log2 fold change (filanesib) | log2 fold change (zotarolimus) | log2 fold change (idasanutlin) | log2 fold change [2] | log2 fold change (gefitinib) | log2 fold change (lapatinib) | log2 fold change (pictilisib) | log2 fold change [3] | log2 fold change (crizotinib) | log2 fold change [4] | log2 fold change [5] | log2 fold change (duvelisib) | log2 fold change (gandotinib) | log2 fold change (tozasertib) | log2 fold change [6] | log2 fold change (doramapimod) | log2 fold change (ispinesib) | log2 fold change (alisertib) | log2 fold change [7]
KIF11 (UniProt P52732) | inactive: -0.004 | active: 1.1 | inactive: 0.074 | inactive: 0.026 | inactive: 0.043 | inactive: -0.002 | inactive: -0.018 | inactive: 0.046 | inactive: 0.034 | inactive: -0.091 | inactive: -0.029 | inactive: 0.207 |  | inactive: -0.018 |  | inactive: 0.19 | inactive: 0.13 | active: 0.761 | inactive: 0.011 | inactive: -0.063
KATNAL1 (UniProt Q9BW62) | inactive: -0.035 | inactive: 0.059 | inactive: -0.009 | inactive: 0.046 | inactive: -0.14 |  | inactive: -0.072 |  | inactive: -0.353 | inactive: -0.147 | inactive: 0.048 | inactive: 0.112 | inactive: 0.09 |  | inactive: 0.12 | inactive: -0.182 | inactive: -0.095 |  |  | 
